Laboratory results from the supplement of paper PMC10849652.
The list shows a part of the results.

Chains of the proteins cited; added tags and fusions are not shown. Lines headed by an entry give the natural chain unless they say otherwise; changes in a name come on top.
UniProt P59817: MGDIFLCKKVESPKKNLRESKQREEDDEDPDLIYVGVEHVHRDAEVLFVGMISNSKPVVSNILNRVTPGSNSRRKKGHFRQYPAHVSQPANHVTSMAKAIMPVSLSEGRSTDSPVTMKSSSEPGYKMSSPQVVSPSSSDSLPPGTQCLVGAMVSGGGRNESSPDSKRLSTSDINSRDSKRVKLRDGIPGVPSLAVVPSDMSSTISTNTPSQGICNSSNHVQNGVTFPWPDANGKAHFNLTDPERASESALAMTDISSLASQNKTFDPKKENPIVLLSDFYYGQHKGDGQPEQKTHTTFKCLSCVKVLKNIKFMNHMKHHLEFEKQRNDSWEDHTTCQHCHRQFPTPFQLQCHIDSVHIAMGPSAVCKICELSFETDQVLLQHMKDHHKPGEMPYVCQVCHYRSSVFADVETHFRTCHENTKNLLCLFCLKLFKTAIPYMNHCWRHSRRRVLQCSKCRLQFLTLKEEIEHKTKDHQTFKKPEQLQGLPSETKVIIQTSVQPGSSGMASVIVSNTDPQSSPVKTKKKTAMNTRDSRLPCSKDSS
UniProt Q8IYI8: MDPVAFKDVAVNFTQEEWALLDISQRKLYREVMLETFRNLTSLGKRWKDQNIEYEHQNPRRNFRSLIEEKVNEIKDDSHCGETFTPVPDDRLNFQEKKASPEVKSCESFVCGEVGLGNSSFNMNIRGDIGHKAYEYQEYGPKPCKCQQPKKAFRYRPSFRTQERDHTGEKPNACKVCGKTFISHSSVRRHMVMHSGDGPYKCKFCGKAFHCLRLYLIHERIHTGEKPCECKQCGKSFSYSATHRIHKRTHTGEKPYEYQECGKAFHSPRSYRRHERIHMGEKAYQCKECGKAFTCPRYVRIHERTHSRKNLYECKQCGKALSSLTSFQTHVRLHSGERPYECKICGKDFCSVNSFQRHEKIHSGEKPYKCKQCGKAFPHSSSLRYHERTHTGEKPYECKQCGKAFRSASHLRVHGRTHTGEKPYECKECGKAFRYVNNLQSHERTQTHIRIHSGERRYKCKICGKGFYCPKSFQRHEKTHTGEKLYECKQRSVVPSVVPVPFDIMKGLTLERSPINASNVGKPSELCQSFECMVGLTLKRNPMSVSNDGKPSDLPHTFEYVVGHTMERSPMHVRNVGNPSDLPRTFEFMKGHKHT
UniProt Q8TF50: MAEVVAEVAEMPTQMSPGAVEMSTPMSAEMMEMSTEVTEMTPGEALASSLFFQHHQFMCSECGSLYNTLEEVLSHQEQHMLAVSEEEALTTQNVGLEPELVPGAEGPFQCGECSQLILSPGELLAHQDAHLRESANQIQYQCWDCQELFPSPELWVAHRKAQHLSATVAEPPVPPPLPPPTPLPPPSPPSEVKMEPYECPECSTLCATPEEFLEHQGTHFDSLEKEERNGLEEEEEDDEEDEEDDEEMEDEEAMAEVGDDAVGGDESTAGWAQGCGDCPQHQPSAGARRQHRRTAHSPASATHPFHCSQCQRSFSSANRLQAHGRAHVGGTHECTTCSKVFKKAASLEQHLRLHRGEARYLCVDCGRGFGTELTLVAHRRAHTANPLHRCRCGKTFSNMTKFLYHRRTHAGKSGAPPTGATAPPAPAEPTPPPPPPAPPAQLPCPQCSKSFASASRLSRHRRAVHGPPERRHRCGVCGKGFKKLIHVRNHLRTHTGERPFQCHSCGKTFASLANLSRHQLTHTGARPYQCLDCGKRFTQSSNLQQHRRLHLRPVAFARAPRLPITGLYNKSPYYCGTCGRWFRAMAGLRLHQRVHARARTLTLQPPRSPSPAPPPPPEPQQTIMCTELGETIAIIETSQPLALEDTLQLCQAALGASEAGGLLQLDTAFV
UniProt Q9BS34: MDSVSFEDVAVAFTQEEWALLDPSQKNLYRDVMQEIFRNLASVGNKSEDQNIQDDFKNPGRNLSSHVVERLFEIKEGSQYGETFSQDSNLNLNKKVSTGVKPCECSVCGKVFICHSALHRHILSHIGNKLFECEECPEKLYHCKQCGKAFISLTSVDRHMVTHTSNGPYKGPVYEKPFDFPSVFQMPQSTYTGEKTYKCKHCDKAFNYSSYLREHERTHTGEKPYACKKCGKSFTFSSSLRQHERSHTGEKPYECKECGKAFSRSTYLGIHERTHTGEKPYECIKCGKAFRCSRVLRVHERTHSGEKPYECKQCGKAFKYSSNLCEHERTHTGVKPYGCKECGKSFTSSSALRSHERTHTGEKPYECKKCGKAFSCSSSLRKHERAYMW
UniProt Q99676: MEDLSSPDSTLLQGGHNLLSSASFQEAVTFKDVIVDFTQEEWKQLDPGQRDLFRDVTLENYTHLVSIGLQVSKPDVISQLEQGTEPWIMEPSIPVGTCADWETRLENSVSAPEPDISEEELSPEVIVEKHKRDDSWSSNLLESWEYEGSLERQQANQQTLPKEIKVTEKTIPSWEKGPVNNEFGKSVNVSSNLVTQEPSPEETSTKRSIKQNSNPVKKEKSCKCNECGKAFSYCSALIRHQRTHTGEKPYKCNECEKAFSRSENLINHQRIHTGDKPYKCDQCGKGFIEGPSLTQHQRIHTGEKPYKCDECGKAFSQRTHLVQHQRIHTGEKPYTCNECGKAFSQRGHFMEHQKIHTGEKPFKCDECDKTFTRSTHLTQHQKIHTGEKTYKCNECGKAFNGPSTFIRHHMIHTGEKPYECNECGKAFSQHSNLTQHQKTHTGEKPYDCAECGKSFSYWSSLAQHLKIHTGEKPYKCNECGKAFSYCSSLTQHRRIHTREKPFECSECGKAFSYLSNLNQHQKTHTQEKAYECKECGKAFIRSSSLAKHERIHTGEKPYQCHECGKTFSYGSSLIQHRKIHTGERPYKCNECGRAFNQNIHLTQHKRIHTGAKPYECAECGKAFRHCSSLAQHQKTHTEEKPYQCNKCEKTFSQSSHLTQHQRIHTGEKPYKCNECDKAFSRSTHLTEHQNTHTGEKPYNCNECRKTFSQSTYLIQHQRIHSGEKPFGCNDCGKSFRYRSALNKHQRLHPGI
UniProt Q6ZN06: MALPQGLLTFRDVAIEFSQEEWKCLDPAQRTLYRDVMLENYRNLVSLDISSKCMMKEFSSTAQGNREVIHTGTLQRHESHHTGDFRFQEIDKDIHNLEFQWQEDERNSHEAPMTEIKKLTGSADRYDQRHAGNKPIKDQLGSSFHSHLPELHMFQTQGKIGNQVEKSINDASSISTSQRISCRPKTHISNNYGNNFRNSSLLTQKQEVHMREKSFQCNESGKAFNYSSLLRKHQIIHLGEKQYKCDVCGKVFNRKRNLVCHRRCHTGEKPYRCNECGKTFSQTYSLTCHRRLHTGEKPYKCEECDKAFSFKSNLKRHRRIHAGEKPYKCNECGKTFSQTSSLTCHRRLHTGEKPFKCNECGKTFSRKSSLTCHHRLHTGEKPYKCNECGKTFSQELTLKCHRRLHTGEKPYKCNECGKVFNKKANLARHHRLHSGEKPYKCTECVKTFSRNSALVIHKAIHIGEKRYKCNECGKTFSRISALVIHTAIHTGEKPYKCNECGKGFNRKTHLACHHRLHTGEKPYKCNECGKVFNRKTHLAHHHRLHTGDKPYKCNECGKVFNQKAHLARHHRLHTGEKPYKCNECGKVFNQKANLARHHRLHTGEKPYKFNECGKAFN
UniProt Q9P1U0, whole entry, looked up: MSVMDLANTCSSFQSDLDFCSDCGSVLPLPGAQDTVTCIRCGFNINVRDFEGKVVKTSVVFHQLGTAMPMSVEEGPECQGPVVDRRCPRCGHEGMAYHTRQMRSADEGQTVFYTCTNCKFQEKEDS
UniProt Q9H707: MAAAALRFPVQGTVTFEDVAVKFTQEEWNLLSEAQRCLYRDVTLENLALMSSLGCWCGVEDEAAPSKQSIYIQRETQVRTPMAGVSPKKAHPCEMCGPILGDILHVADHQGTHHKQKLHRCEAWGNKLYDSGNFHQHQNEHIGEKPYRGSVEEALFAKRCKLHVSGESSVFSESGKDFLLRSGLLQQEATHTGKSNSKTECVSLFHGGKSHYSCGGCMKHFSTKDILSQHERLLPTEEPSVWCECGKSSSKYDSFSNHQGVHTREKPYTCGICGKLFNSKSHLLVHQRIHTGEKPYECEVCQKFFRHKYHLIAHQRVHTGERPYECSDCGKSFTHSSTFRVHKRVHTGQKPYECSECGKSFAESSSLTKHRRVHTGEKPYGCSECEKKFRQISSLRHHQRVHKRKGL
UniProt Q0VGE8: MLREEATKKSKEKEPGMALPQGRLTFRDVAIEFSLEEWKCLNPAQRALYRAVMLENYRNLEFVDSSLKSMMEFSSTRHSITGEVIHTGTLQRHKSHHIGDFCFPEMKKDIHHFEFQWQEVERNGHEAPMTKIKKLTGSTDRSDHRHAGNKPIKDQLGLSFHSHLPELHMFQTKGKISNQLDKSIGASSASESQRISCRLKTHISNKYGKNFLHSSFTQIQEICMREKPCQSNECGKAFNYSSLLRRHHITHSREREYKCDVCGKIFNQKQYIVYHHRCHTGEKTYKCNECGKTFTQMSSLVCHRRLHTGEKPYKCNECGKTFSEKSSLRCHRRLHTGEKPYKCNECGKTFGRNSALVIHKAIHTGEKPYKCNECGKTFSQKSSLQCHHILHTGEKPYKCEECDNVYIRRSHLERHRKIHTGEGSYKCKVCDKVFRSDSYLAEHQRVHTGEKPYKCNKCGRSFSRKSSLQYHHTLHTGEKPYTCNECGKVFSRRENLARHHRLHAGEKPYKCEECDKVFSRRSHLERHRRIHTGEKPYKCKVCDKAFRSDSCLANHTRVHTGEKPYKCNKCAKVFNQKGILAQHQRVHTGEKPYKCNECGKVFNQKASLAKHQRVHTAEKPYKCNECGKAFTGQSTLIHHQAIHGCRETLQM
UniProt Q9Y2X9: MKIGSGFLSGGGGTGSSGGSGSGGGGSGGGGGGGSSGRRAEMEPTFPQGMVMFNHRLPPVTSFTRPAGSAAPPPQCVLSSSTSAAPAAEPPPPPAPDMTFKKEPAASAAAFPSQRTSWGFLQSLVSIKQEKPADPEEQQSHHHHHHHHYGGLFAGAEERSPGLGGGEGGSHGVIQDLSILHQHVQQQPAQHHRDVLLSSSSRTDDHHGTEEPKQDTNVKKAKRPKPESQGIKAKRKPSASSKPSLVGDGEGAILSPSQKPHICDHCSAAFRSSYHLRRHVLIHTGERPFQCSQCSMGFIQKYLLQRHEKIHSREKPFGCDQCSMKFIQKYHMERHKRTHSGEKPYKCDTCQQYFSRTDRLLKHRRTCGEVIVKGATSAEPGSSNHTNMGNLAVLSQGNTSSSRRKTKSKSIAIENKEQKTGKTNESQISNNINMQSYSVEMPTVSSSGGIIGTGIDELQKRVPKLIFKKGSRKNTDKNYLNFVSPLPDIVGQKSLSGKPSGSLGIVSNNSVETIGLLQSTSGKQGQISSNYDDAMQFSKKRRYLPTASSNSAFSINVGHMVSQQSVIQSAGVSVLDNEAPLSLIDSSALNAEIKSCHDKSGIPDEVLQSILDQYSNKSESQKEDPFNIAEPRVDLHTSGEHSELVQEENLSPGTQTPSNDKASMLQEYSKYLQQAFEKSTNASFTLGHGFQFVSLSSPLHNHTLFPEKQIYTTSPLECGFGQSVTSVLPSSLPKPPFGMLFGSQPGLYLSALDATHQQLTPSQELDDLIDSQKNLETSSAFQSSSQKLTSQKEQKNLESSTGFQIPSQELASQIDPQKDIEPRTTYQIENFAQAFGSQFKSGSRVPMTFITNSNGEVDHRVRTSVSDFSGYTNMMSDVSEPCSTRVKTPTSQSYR
UniProt Q8N4W9: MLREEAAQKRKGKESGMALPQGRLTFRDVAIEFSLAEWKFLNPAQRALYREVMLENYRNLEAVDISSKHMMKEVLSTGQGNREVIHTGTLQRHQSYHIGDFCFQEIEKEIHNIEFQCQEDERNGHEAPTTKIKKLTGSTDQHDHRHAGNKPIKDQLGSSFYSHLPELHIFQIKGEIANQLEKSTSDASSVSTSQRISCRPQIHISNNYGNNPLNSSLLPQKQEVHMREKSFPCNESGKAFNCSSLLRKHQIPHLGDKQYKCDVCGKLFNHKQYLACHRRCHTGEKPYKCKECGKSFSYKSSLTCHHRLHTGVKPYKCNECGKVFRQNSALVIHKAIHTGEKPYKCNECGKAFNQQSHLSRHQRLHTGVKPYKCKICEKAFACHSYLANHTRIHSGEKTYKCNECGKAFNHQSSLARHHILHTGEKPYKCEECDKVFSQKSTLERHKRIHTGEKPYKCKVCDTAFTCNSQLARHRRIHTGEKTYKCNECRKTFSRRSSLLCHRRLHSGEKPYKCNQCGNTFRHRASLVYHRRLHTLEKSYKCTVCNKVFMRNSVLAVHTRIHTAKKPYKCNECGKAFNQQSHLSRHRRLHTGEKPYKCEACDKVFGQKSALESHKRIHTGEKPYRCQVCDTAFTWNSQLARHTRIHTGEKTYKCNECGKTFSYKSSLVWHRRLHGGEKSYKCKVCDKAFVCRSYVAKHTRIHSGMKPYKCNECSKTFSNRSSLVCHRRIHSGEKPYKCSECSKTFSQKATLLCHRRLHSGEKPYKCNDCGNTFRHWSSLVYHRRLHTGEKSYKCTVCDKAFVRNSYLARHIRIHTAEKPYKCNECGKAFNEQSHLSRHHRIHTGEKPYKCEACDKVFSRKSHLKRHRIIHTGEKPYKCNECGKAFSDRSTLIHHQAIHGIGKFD

compound: Cc1nc(Nc2n[nH]c3c2CN(C(=O)N[C@H](CN(C)C)c2ccccc2)C3(C)C)c2sccc2n1; test: log2 fold change, soluble protein after heating vs DMSO (PISA); higher = thermal stabilisation; K562 lysate, 10 uM; active = over 0.2 and 3.5 SD of the protein, either way, in both replicates (recomputed)
Method in brief: (§1)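 To prepare the extract, K562 pellets were dounce-homogenised in PBS pH 7.4 with 1 mM MgCl2, giving crude material at 1 mg/mL protein. This was treated with 10 μM compound for 30 min, then heated in aliquots for 3 min over 48°C-58°C before pooling and addition of NP-40 to 0.5% at 4°C. Centrifugation at 21,000xg for 90 min left soluble protein in the supernatant, which TMTpro 16plex LC-MS/MS quantified with equalised channel sums. Results are log-two fold changes in thermal stability compared with solvent controls, from duplicates.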

| Target | log2 fold change |
| --- | --- |
| ZNF280A (UniProt P59817) | inactive: -0.074 |
| ZNF440 (UniProt Q8IYI8) | inactive: -0.112 |
| ZNF746 isoform 2 (UniProt Q6NUN9) | inactive: -0.142 |
| ZNF526 (UniProt Q8TF50) | inactive: -0.02 |
| ZNF670 (UniProt Q9BS34) | inactive: 0.011 |
| ZNF184 (UniProt Q99676) | inactive: 0.074 |
| ZNF813 (UniProt Q6ZN06) | inactive: -0.086 |
| ZNRD1 (UniProt Q9P1U0) | inactive: 0.013 |
| ZNF552 (UniProt Q9H707) | inactive: 0.029 |
| ZNF816 (UniProt Q0VGE8) | inactive: 0.094 |

compound: Cc1nc(Nc2ncc(C(=O)Nc3c(C)cccc3Cl)s2)cc(N2CCN(CCO)CC2)n1 [dasatinib]; test: as above
Method in brief: as §1

| Target | log2 fold change |
| --- | --- |
| ZNF281 (UniProt Q9Y2X9) | inactive: -0.041 |
| ZNF808 (UniProt Q8N4W9) | inactive: -0.165 |
| ZNF280A (UniProt P59817) | inactive: -0.148 |
| ZSWIM7 (UniProt Q19AV6) | inactive: -0.207 |
| ZNF692 isoform 5 (UniProt Q9BU19) | inactive: 0.312 |
| ZNF526 (UniProt Q8TF50) | inactive: 0.019 |
| ZNF562 (UniProt Q6V9R5) | inactive: 0.1 |
| ZNF146 (UniProt Q15072) | inactive: -0.028 |
| ZNF184 (UniProt Q99676) | inactive: 0.046 |
| ZNF813 (UniProt Q6ZN06) | inactive: -0.076 |
| ZSCAN25 (UniProt Q6NSZ9) | inactive: -0.172 |
| ZUP1 (UniProt Q96AP4) | inactive: -0.029 |

compound: Cc1ncc(-c2ccnc(Nc3ccc(S(C)(=O)=O)cc3)n2)n1C(C)C; test: as above
Method in brief: as §1

| Target | log2 fold change |
| --- | --- |
| ZNF280A (UniProt P59817) | inactive: 0.024 |
| ZNF440 (UniProt Q8IYI8) | inactive: -0.031 |
| ZNF746 isoform 2 (UniProt Q6NUN9) | inactive: -0.083 |
| ZNF526 (UniProt Q8TF50) | inactive: -0.027 |
| ZNF670 (UniProt Q9BS34) | inactive: 0.101 |
| ZNF184 (UniProt Q99676) | inactive: -0.041 |
| ZNF813 (UniProt Q6ZN06) | inactive: -0.031 |
| ZNRD1 (UniProt Q9P1U0) | inactive: 0.066 |
| ZNF552 (UniProt Q9H707) | inactive: 0.043 |
| ZNF816 (UniProt Q0VGE8) | inactive: -0.141 |

compound: Cn1cc(-c2ccc3c(c2)CCN3C(=O)Cc2cccc(C(F)(F)F)c2)c2c(N)ncnc21; test: as above
Method in brief: as §1

| Target | log2 fold change |
| --- | --- |
| ZNF281 (UniProt Q9Y2X9) | inactive: 0.031 |
| ZNF808 (UniProt Q8N4W9) | inactive: 0.035 |
| ZNF280A (UniProt P59817) | inactive: -0.033 |
| ZSWIM7 (UniProt Q19AV6) | inactive: 0.133 |
| ZNF692 isoform 5 (UniProt Q9BU19) | inactive: -0.128 |
| ZNF526 (UniProt Q8TF50) | inactive: -0.135 |
| ZNF562 (UniProt Q6V9R5) | inactive: -0.156 |
| ZNF146 (UniProt Q15072) | inactive: 0.188 |
| ZNF184 (UniProt Q99676) | inactive: 0.038 |
| ZNF813 (UniProt Q6ZN06) | inactive: 0.05 |
| ZSCAN25 (UniProt Q6NSZ9) | inactive: -0.065 |
| ZUP1 (UniProt Q96AP4) | inactive: -0.074 |

compound: Cn1cc(CNCC2CCN(c3ncc(C(=O)NO)cn3)CC2)c2ccccc21 [quisinostat]; test: as above
Method in brief: as §1

| Target | log2 fold change |
| --- | --- |
| ZNF16 (UniProt P17020) | inactive: -0.017 |
| ZNF281 (UniProt Q9Y2X9) | inactive: 0.151 |
| ZNF652 (UniProt Q9Y2D9) | inactive: 0 |
| ZNF770 (UniProt Q6IQ21) | inactive: 0.044 |
| ZNF410 isoform 5 (UniProt Q86VK4) | inactive: 0.173 |
| ZNF808 (UniProt Q8N4W9) | inactive: -0.121 |
| ZMYND19 (UniProt Q96E35) | inactive: 0.154 |
| ZNF280A (UniProt P59817) | inactive: -0.125 |
| ZNF280A, A0A0G2JN84 | inactive: -0.138 |
| ZRSR2 (UniProt Q15696) | inactive: -0.082 |
| ZNF76 (UniProt P36508) | inactive: 0.013 |
| ZSCAN26 (UniProt Q16670) | inactive: 0.169 |
| ZNF646 (UniProt O15015) | inactive: 0.074 |
| ZNF655 isoform 3 (UniProt Q8N720) | inactive: -0.317 |
| ZNF184 (UniProt Q99676) | inactive: 0.059 |
| ZNF816 (UniProt Q0VGE8) | inactive: 0.175 |

compound: Cn1cncc1[C@@](N)(c1ccc(Cl)cc1)c1ccc2c(c1)c(-c1cccc(Cl)c1)cc(=O)n2C [tipifarnib]; test: as above
Method in brief: as §1

| Target | log2 fold change |
| --- | --- |
| ZNF280A (UniProt P59817) | inactive: -0.173 |
| ZNF440 (UniProt Q8IYI8) | inactive: 0.109 |
| ZNF746 isoform 2 (UniProt Q6NUN9) | inactive: 0.06 |
| ZNF526 (UniProt Q8TF50) | inactive: 0.028 |
| ZNF670 (UniProt Q9BS34) | inactive: -0.103 |
| ZNF184 (UniProt Q99676) | inactive: 0.08 |
| ZNF813 (UniProt Q6ZN06) | inactive: 0.1 |
| ZNRD1 (UniProt Q9P1U0) | inactive: -0.055 |
| ZNF552 (UniProt Q9H707) | inactive: -0.094 |
| ZNF816 (UniProt Q0VGE8) | inactive: 0.082 |
